PubChem BioAssay AID1259254, NCATS, 2017
Here is a random part of about 59,000 reagents tested. About 1,550 of them (2.6%) were called active. 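G2 share is only a proxy for re-replication; each gene was hit by three separate siRNAs, and active genes were retested.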 The numbers tell different reagents against one gene apart. Not all columns of the deposit are shown. Not given: the amount of reagent.

- Screen: 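Gene knock-downs that lead to re-replication, shown by excess G2 DNA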 (primary screen)
- Cell system: human HCT116 colorectal cancer cells
- Reagents: single siRNA against human genes
- Timing: 3 days
- Measurement: 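Imaged Hoechst DNA stain sorts each cell into a cycle phase by DNA amount; per plate, G2 fraction set to 0% for non-targeting and 100% for GMNN siRNA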
- Reading the numbers: G2 robust z-score: higher = more G2 cells, more excess DNA replication
- Hit rule: 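Active siRNAs have a G2 robust z of 5 or more median absolute deviations over the median, which in these data means about 38% or higher of GMNN control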

PON3 #1 gave G2 robust z-score -0.156; inactive.
After knock-down of PON3 #2, the screen gave G2 robust z-score 3.98; inactive.
Against PON3 #3 the deposit lists G2 robust z-score -0.553; inactive.
ZNF627 #1 scored G2 robust z-score 0.724; inactive.
Against ZNF627 #2, the entry reads G2 robust z-score 0.288; inactive.
For ZNF627 #3, the entry reads G2 robust z-score -0.332; inactive.
After knock-down of KCNV2 #1, the record shows G2 robust z-score 2.49; inactive.
KCNV2 #2 gave G2 robust z-score -0.838; inactive.
For KCNV2 #3 the deposit lists G2 robust z-score 0.224; inactive.
Against RADIL #1, the values are G2 robust z-score -0.469; inactive.
RADIL #2 showed G2 robust z-score -0.949; inactive.
RADIL #3 gave G2 robust z-score -0.659; inactive.

Reformatted: 2 of the entries above
| gene knocked down | reagent | G2 robust z-score | outcome |
| --- | --- | --- | --- |
| ZNF627 | 3 | -0.332 | inactive |
| KCNV2 | 1 | 2.49 | inactive |
